Source: PMC4541371
No constants are given. Whether binding was seen depends on the method and setting. For some assays here: Binding seen in cells or lysates may run through a third protein. Some results given as binding are weak or reduced against the parent protein; the word gives no strength.

Sequences of proteins named here, by UniProt entry; tags and fusion partners are left off. A change or cut given only in a name is not applied to a line headed by its entry.
UniProt O60603: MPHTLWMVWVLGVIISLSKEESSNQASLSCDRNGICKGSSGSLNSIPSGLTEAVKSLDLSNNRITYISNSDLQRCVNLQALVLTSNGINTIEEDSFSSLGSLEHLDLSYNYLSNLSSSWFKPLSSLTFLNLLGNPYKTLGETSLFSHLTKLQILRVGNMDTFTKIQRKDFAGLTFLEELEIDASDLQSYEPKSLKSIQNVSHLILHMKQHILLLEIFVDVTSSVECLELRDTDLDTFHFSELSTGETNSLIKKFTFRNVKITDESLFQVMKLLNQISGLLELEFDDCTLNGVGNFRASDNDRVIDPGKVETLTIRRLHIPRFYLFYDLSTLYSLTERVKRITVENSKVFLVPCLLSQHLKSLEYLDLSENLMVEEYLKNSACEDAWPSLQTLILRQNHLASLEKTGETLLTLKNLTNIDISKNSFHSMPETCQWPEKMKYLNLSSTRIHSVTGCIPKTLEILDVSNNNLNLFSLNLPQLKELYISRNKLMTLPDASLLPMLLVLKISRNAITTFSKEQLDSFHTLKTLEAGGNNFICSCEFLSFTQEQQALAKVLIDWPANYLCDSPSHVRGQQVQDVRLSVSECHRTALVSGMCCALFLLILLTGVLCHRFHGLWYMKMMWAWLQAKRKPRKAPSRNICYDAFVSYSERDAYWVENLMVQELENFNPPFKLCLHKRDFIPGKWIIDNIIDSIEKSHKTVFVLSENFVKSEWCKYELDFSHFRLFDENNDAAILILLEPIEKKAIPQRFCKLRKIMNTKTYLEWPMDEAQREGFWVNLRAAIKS

Columns and labels:
[1] = target: T1, CD14 expressed from pCD14 in HEK293 cells (UniProt P08571); assay: co-IP; positive control: HEK293 lysates with TLR2-Flag and with CD14 mixed in presence of 10 ug/mL Pam3CSK4, BWB, 4 C; anti-CD14 antibody, protein G Dynabeads; blot probed with anti-Flag
T1 sequence: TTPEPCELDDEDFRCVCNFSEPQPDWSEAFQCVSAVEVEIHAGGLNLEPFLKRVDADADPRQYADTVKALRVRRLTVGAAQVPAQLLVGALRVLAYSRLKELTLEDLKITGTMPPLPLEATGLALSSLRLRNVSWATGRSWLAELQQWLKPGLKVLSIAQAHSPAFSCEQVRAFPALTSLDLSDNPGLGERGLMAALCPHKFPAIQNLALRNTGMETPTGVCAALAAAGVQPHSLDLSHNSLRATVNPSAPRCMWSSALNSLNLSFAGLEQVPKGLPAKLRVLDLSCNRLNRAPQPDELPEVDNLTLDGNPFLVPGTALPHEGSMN

[2] = target: T2, pure CD14 (sCD14), blotted as positive control (UniProt P08571); assay: far-Western, overlay or dot blot; 20 pmol of each protein blotted onto nitrocellulose; membrane incubated with TZMbl-2 cell membrane fraction; probed with anti-TLR2 antibody, chemiluminescence; only the target purified
T2 sequence: T1 sequence

| Substance | binding [1] | binding [2] |
| --- | --- | --- |
| TLR2-Flag (human TLR2 with three C-terminal Flag tags, plasmid pIhT2FG) (from UniProt O60603 21-784) (receptor) | binds | – |
| human TLR2, stably expressed in TZMbl-2 cells (plasmid pIhT2G) (from UniProt O60603 21-784) (receptor) | – | binds |
